Test results as given in PubChem BioAssay AID493014 (National Center for Advancing Translational Sciences (NCATS), 2011).
Screen size: about 340,000 compounds; about 170 (0.05%) were called active. Inconclusive results, whose numbers are uncertain, are shown with a selection of clear calls. Calls follow the shape of the dose curve; as a rule, active = well fitted inhibition curve with a large enough effect in the signal ratio, with a control signal flat (not every such curve was filed as active); inconclusive = small, poorly fitted or top-dose-only effect, or effect the other way, or a change in a side signal; inactive = flat fitted curve, though single readings scatter; the % refers to the signal ratio. Potencies of inconclusive entries are doubtful fits and often do not repeat.

experiment: qHTS Assay to Find Inhibitors of Chronic Active B-Cell Receptor Signaling; conditions: ABC-DLBCL IkBa-CBG/CBR reporter, luminescence ratio (green luciferase fused to IkBa over red control in TMD8 lymphoma cells), 4 h; activity change, negative = inhibition: at 46.1 µM (top of the series);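 as to activity change, negative = inhibition: plate controls were basal doxycycline-induced cells for no effect and cells given 10 µM MG132 for full effect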
Method in brief: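 TMD8 ABC-DLBCL cells carrying doxycycline-inducible green luciferase fused to IkappaBalpha plus unfused red luciferase were exposed to compounds (up to 46 uM) for 4 hrs at 37C. Activity came from the overlap-corrected green/red luminescence ratio.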
Potency is read from the fitted curve at half-maximal effect.

| SMILES | activity change, negative = inhibition | Potency |
| --- | --- | --- |
| CNc1c(NS(=O)(=O)c2ccc(OC)c(Cl)c2)c(=O)oc2ccccc12 | inconclusive: -2.74% | – |
| C=C1CCC[C@]2(C)C[C@H]3OC(=O)C(CN(Cc4ccc(OC)c(OC)c4)CC(C)O)[C@H]3CC12 (stereo partly drawn) | – | inconclusive: 25.1 µM [falling, single point] |
| CN(C(=O)CCc1nc2ccccc2s1)c1ccccc1 | inconclusive: 8.46% | – |
| O=C(NNC(=S)Nc1ccc(Br)cc1)c1ccc(N2CCOCC2)c([N+](=O)[O-])c1 | inactive: 11.8% | – |
| CC(=O)NC(CSC(CC(=O)c1ccco1)c1ccc(C)cc1)C(=O)O (stereo not drawn) | inactive: -27.2% | – |
| CC(C)(C)c1cc[n+](-c2[nH]c(=O)sc2/C=N/NC(=O)c2ccccc2[O-])cc1 | – | inconclusive: 35.5 µM [falling, single point] |
| CCNC(=O)CC1S/C(=N/N=C(\C)c2ccccc2)NC1=O (stereo not drawn) | inconclusive: 2.38% | – |
| O=C(COc1ccc(Cl)cc1Cl)c1ccc[nH]1 | inconclusive: -8.49% | – |
| CN(Cc1cnn(C)c1)C(=O)C1CCC(=O)N(Cc2ccc(Cl)cc2)C1 (stereo not drawn) | inconclusive: -0.314% | – |
| NS(=O)(=O)c1cccc(NC(=O)c2cccc(-c3ccc(O)cc3)c2)c1 | – | inconclusive: 35.5 µM [falling, single point] |
| CSc1nnc(SCc2nc3sc(C(=O)O)c(C)c3c(=O)[nH]2)s1 | – | inconclusive: 31.6 µM [falling, partial curve] |
| CCOC(=O)N1CCC(NCCNC(=O)c2cccc(F)c2)CC1 | inactive: -15.8% | – |
| O=Cc1cc(N=Nc2ccccc2Cl)ccc1O | – | inconclusive: 14.1 µM [rising, single point] |
| O=C(CCN1C(=O)c2cccc3cccc(c23)C1=O)NCc1cccnc1 | inactive: 2.39% | – |
| Cc1cccc(CCNCc2c(C(=O)O)c(C)n(-c3ccccc3)c2C)c1 | inconclusive: 2.43% | – |
| CCC(=O)N/C(=N/c1nc(C)cc(C)n1)Nc1ccc(C)cc1 | inconclusive: 0.727% | – |
| CC1CCN(S(=O)(=O)c2ccc3ncn(CC(=O)N(C)C4CCCCC4)c(=O)c3c2)CC1 | inconclusive: -0.248% | – |
| Cc1ccc(C(=O)NC(=S)N2CCN(C)CC2)cc1 | inactive: 4.39% | – |
| NS(=O)(=O)c1ccc(NC2=CC(=O)C(=O)c3ccccc32)cc1 | – | inconclusive: 35.5 µM [falling, partial curve, poor fit] |
| CCOc1ccc(NC(=S)NNC(=S)Nc2cccc(C(F)(F)F)c2)cc1 | inconclusive: 27.4% | – |
| Cc1cc(C(=O)CCC(=O)Nc2ncccc2O)c(C)s1 | – | inconclusive: 23.1 µM [falling, partial curve] |
| COc1cccc(CNC(=O)c2cc3ccccn3n2)c1 | – | inconclusive: 16.4 µM [falling, single point] |
| O=C(COc1ccc(Br)cc1)Nc1cccc2cccnc12 | inconclusive: 17.9% | – |
| Cc1ccc(NC2=NCC(=O)N2C2CCCC2)cc1 | inconclusive: 5.73% | – |
| C=CCn1cnc2c(nnn2-c2ccc(C)c(Cl)c2)c1=O | inconclusive: 5.4% | – |
| CC(Oc1ccc(Cl)cc1)C(=O)Nc1ccc(S(=O)(=O)Nc2nccs2)cc1 (stereo not drawn) | – | inconclusive: 10 µM [rising, partial curve, poor fit] |

| SMILES | activity change, negative = inhibition | Potency |
| --- | --- | --- |
| COc1ccccc1-c1cnn2c(NC3CCCC3)cc(C)nc12 | inactive: -0.931% | – |
| COc1cccc(NC(=O)Cc2c(C(=O)O)[nH]c3ccccc23)c1 | inconclusive: 5.63% | – |
| COc1ccc(C(=O)N2CCN=C2SCc2cccnc2)cc1OC | – | inconclusive: 29.1 µM [falling, single point] |
| CSc1ccccc1NC(=O)COC(=O)/C=C/c1ccco1 | – | inconclusive: 25.9 µM [falling, partial curve, poor fit] |
| Cc1ccc(NC(=O)C(C)OC(=O)Cn2cnc3ccccc3c2=O)cc1 (stereo not drawn) | inactive: -4.41% | – |
| CC(/C=N\N1CCN(c2ccc(Cl)cc2)CC1)=C\c1ccccc1 | inconclusive: 6.76% | – |
| COc1ccc(OC)c(CNn2c(-c3cccc(C)c3)nc3ccccc3c2=O)c1 | – | inconclusive: 23.1 µM [rising, partial curve, poor fit] |
| COc1ccccc1/C=C/C(=O)NCc1ccccn1 | inconclusive: -17.7% | – |
| CCn1c2ccccc2c2cc(NC(=O)CNCc3ccccc3OC)ccc21 | – | inconclusive: 11.2 µM [falling, partial curve] |
| C#CCOc1ccccc1CNC1CCN(Cc2ccccc2)CC1 | inactive: -0.858% | – |
| Cc1ccc2nc(NC(=O)CSc3ncc(C(=O)Nc4ccccc4)c(=O)n3C)sc2c1 | – | inconclusive: 17.8 µM [falling, single point] |
| COc1ccc(C2CC(c3ccccc3)=NN2C(=S)Nc2ccccc2)cc1 (stereo not drawn) | inactive: 2.94% | – |
| COc1ccccc1NC(=O)Nc1cccc(C(=O)O)c1 | – | inconclusive: 12.6 µM [falling, partial curve] |
| Cc1ccccc1NC1=C/C(=N\S(=O)(=O)c2cccs2)c2ccccc2C1=O | – | inconclusive: 6.51 µM [falling, single point] |
| CC1CCN(CCCNS(=O)(=O)c2ccc3c(c2)CCN3C(=O)C2CC2)CC1 | inactive: 0.893% | – |
| O=C(c1ccc([N+](=O)[O-])cc1)N(Cc1ccc(Cl)cc1Cl)N1C(=O)CCCC1=O | inconclusive: 2.56% | – |
| O=C(c1cnn(C(=O)c2cccc(S(=O)(=O)N3CCOCC3)c2)c1)c1ccccc1O | inactive: -1.54% | – |
| CCOc1ccc(-c2csc(/C(C#N)=C\c3ccc(O)c([N+](=O)[O-])c3)n2)cc1 | inactive: 11.8% | – |
| CCCCn1c(N)c(N(CCOC)C(=O)CN(C)S(=O)(=O)c2ccc(Cl)cc2)c(=O)[nH]c1=O | inconclusive: 9.49% | – |
| COc1ccc(C(=S)N2CCN(c3cccc(Cl)c3)CC2)c(OC)c1 | – | inconclusive: 20 µM [falling, partial curve, poor fit] |
| CC(=O)c1cccc(NC(=O)CN2CCc3cc4c(cc3C2)OCCCO4)c1 | inactive: -13.5% | – |
| COc1ccc(NC(=S)NC(NC(=O)c2cccc3ccccc23)C(Cl)(Cl)Cl)c([N+](=O)[O-])c1 (stereo not drawn) | inconclusive: 11% | – |
| Cc1cc(NC(=O)CN2C(=O)CC(c3ccco3)Sc3ccccc32)no1 (stereo not drawn) | inconclusive: -9.11% | – |
| Cc1cc(S(=O)(=O)Nc2ccccc2C(=O)O)ccc1Cl | inconclusive: 4.3% | – |
| O=C(CN1CCN(Cc2ccc3c(c2)OCO3)CC1)c1c[nH]c2ccccc12 | – | inconclusive: 20 µM [falling, partial curve, poor fit] |
| CCOC(=O)c1sc2nc3c(cc2c1N)COC(C)(CC)C3 (stereo not drawn) | inconclusive: 13% | – |

Individual results from above:
Value of Cc1ccc(NC(=O)C(C)OC(=O)Cn2cnc3ccccc3c2=O)cc1 (stereo not drawn) under activity change, negative = inhibition: inactive: -4.41%
Value of CCn1c2ccccc2c2cc(NC(=O)CNCc3ccccc3OC)ccc21 under Potency: inconclusive: 11.2 µM [falling, partial curve]
Value of COc1ccc(NC(=S)NC(NC(=O)c2cccc3ccccc23)C(Cl)(Cl)Cl)c([N+](=O)[O-])c1 (stereo not drawn) under activity change, negative = inhibition: inconclusive: 11%
Value of COc1ccc(C(=O)N2CCN=C2SCc2cccnc2)cc1OC under Potency: inconclusive: 29.1 µM [falling, single point]
Value of Cc1ccccc1NC1=C/C(=N\S(=O)(=O)c2cccs2)c2ccccc2C1=O under Potency: inconclusive: 6.51 µM [falling, single point]

Remaining list, next part

| SMILES | activity change, negative = inhibition | Potency |
| --- | --- | --- |
| O=C(Nc1ccc2nc(-c3ccco3)c(-c3ccco3)nc2c1)NC1CC1 | – | inconclusive: 1.3 µM [rising, partial curve, poor fit] |
| C=CCN(C(=O)c1csnn1)C(C(=O)NC1CCCC1)c1ccccc1F (stereo not drawn) | inactive: -1.85% | – |
| O=C(C1CCCCC1)N1CCN=C1SCc1cccc([N+](=O)[O-])c1 | inconclusive: -24.1% | – |
| Cc1ccc(Cn2c(-c3nonc3N)nc3ccccc32)cc1 | inconclusive: -7.8% | – |
| COc1cccc(-c2nc(-c3ccccn3)no2)c1OC | inconclusive: 0.0063% | – |
| COc1ccc(CCNC(=O)CNS(=O)(=O)c2ccc(F)c(Cl)c2)cc1OC | inactive: -8.64% | – |
| Clc1ccc(-c2cnc3n2CCCCC3)cc1 | inactive: 0.626% | – |
| Cc1csc2c(N3CCN(C(=O)Nc4ccc(Cl)c(Cl)c4)CC3)ncnc12 | inconclusive: 5.17% | – |
| Brc1ccc(C2=Nn3c(nnc3-c3n[nH]c4c3CCC4)SC2)cc1 | – | inconclusive: 4.61 µM [cytotoxic, partial curve, poor fit] |
| Cc1ccc(C(CC(=O)N2CCCC2)c2ccccc2)c(O)c1C (stereo not drawn) | inconclusive: -8.87% | – |
| Cc1ccc(N(CC(O)Cn2c3ccccc3c3ccccc32)S(C)(=O)=O)cc1 (stereo not drawn) | inconclusive: -16.5% | – |
| CCOc1ccc(S(=O)(=O)NCCCl)cc1 | inconclusive: 20.1% | – |
| COc1ccc(NC(C)=O)cc1NS(=O)(=O)c1cn(C)c(=O)n(C)c1=O | inconclusive: 9.89% | – |
| N#C/C(=N\Nc1cccc(Cl)c1)C(=O)c1ccccc1 | – | inconclusive: 22.4 µM [falling, partial curve] |
| COc1ccc(OC)c(/C=C/C(=O)OCC(=O)Nc2cccc(Oc3ccccc3)c2)c1 | inactive: -17.5% | – |
| O=C(Nc1cc(Br)ccc1O)c1cc(-c2ccc3c(c2)OCO3)on1 | – | inconclusive: 20 µM [falling, partial curve, poor fit] |
| COc1ccccc1-c1nc(C#N)c(N2CCc3ccccc3C2)o1 | inconclusive: -2.44% | – |
| CC(Nc1nc(N2CCNCC2)nc2ccccc12)c1ccccc1 (stereo not drawn) | inactive: -8.63% | – |
| Oc1ccc(-c2n[nH]c(C(F)(F)F)c2-c2ccccc2)c(O)c1 | inconclusive: 18.4% | – |
| CCOc1ncccc1C(=O)Nc1nnc(C2CC2)s1 | – | inconclusive: 22.4 µM [falling, partial curve, poor fit] |
| Cc1ccccc1C(=O)NCc1ccc2c(c1)CCN2C(=O)c1ccc(F)cc1 | inactive: 8.59% | – |
| C[C@]12CCC(=O)C=C1[C@H](O)C[C@@H]1[C@@H]2[C@@H](O)C[C@@]2(C)[C@H]1CC[C@]2(O)C(=O)CO | – | inconclusive: 11.2 µM [falling, partial curve, poor fit] |
| COc1ccc(NC(=O)Cn2nnc(C(=O)NCc3ccco3)c2N)cc1 | inconclusive: -3.75% | – |
| O=C(Nc1cccc(S(=O)(=O)C(F)F)c1)c1ccc(S(=O)(=O)N2CCOCC2)cc1 | inconclusive: 6.05% | – |
| CCc1cccc(CC)c1NC(=O)CSc1nc2ccc(N3C(=O)C4C5C=CC(C5)C4C3=O)cc2s1 (stereo not drawn) | inconclusive: 0% | – |
| O=C(c1ccc([N+](=O)[O-])o1)N1CCN(c2nc3c(Cl)cccc3s2)CC1 | inactive: -2.19% | – |
